The values that follow come from patent publication US11712440B2, “Predictive markers for ATR kinase inhibitors” (Bayer Aktiengesellschaft, priority 2017, dated 2023).

What all share (assay): cells
Conditions in all cases: Gallus gallus, DT40, 72 h

Experiment [1] relates to wild-type DT40 chicken lymphoma cells.
Experiment [2] concerns DT40 CtIPs/−/− cells (RBBP8, S322A mutation).
Experiment [3] deals with DT40 CtIP+/−/− cells (RBBP8 heterozygous knockout).

What is called IC50 is the concentration that gives 50% inhibition. `C[C@@H]1COCCN1c1cc(-c2ccnn2C)c2ccnc(-c3ccn[nH]3)c2n1` [Compound A, 2-[(3R)-3-methylmorpholin-4-yl]-4-(1-methyl-1H-pyrazol-5-yl)-8-(1H-pyrazol-5-yl)-1,7-naphthyridine]: the IC50 in experiment [1] is 130 nM; in experiment [2], 68 nM; in experiment [3], 34 nM.
